Experimental data: patent publication US20210100909A1, “Polymeric Methylprednisolone Conjugates and Uses Thereof” (United States Government As Represented By The Department …, priority 2019, published 2021)
For at least one compound, name, drawing or mass did not settle the structure.

Experiments:
Assay type in all cases: in vivo, rat
[1] = test system: nitrotyrosine; test: Nitrotyrosine immunostaining of spinal cord (oxidative stress); conditions: 2 days post injury
Description: (§1) Injectable methylprednisolone (MP) solution (62.5 mg/ml) was obtained from Pfizer. MP was conjugated to the chain terminus of methoxy HPMA, an amphiphilic macromolecular prodrug. In parallel, IRDye® 800CW-MP-HPMA (MP-Nano-IRDye) and Alexa Fluor 488-labeled HPMA-MP (MP-Nano-Alexa 488) were also synthesized for optical imaging to visualize the bio-distribution of MP-Nano. Immediately after spinal cord transection, animals were administered an intravenous injection of freshly prepared MP-Nano (60 mg/kg, equivalent to 20% free MP dose at 30 mg/kg), MP (30 mg/kg) or vehicle (propylene glycol) by tail vein, followed by implantation of an Alzet pump (Durect Co, Cupertino, Calif., USA) which provided a 24-h infusion of MP at 5.4 mg/kg/hr (SCI-MP), or vehicle (propylene glycol) (SCI-veh and SCI-Nano-MP) into a subcutaneous pocket. These dosing of MP corresponds on an mg per kg basis to that prescribed by the Bracken protocol. Sham-transected animals underwent laminectomy and implantation of the same Alzet pumps, with vehicle (propylene glycol) infusion instead, as baseline controls.
(§2) At 2 and 7 days after injury, animals (sham, SCI-veh, SCI-MP, SCI-Nano-MP, n=5 animals for each condition and time point) were perfused transcardially with 4% paraformaldehyde. […] Fluorescence intensity quantifications were performed in the ImageJ software (NIH).

[2] = test system: malondialdehyde (MDA); test: Lipid peroxidation, TBARS assay of spinal cord (MDA); conditions: two days post injury
[3] = test system: TNF-α; test: TNF-α immunostaining of spinal cord (inflammation); conditions: 2 days after injury
Description: as §1, §2

[4] = test system: caspase-3 and Bax; test: Caspase-3 activation and Bax immunostaining of spinal cord (apoptosis); conditions: injured spinal cord sections

SMILES: C[C@H]1C[C@@H]2[C@H]([C@@H](O)C[C@@]3(C)[C@H]2CC[C@]3(O)C(=O)CO)[C@@]2(C)C=CC(=O)C=C12 [MP, methylprednisolone]
- change of NT accumulation vs. SCI-veh [1]: only Nano-MP was able to reduce the NT accumulation
- MDA level in the spinal cord [2]: not systemic MP treatment, decreased the MDA level
- decrease of TNF-α vs. SCI-veh [3]: only upon Nano-MP, not MP treatment
- immunoreactive signals of Caspase-3 activation and Bax in motor neurons [4]: MP administration causes further neural apoptosis after SCI
